Chains of the proteins cited; added tags and fusions are not shown.
UniProt O00167, whole entry, looked up: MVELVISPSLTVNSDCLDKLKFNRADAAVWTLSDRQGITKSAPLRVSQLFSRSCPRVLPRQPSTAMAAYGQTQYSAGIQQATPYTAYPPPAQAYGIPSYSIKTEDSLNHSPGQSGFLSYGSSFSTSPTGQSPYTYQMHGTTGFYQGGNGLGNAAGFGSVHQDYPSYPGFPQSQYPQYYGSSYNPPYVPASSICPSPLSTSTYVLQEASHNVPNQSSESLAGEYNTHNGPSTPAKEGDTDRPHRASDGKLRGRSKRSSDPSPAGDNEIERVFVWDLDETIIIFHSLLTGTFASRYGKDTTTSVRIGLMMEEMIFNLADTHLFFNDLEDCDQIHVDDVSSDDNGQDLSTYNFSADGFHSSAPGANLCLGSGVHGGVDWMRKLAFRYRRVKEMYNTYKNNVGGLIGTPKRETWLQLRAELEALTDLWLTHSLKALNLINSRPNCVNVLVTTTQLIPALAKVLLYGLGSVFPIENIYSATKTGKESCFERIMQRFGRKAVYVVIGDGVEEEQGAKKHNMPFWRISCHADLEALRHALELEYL

In all, about 330,000 compounds went through this assay and about 20 (0.006%) were called active. The shares of active, inactive and inconclusive entries below differ from those in the screen. The call rests on the fitted dose curve; in most records, active means well fitted inhibition curve with a large enough effect; inconclusive means small, poorly fitted or top-dose-only effect, or effect the other way; inactive means flat fitted curve, though single readings scatter. Where the call is inconclusive, the potency comes from a doubtful curve fit.
What follows are compounds tested against Protein phosphatase EYA2 (Homo sapiens) (UniProt O00167) (assay: qHTS Assay for Inhibitors of the Phosphatase Activity of Eya2). Settings: recombinant Eya2, OMFP fluorescence dephosphorylation (OMFP is methylfluorescein phosphate); activity, negative = inhibition: at 76.9 µM (top of the series) unless noted.
Summary of the method: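 Eya2 protein (added as 0.2 uM solution) was preincubated with compound for 10 min at ambient temperature in 50 mM HEPES pH 7.5, 50 mM NaCl, 5 uM MgCl2, 0.05% BSA, 1 mM DTT. OMFP (added at 50 uM) then reacted 10 min; fluorescence read at 485/525 nm.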
Cc1cc(C)n(Cc2ccc(C(=O)O)cc2)n1 was tested, and the “activity, negative = inhibition” value was inactive: -5.24%. For O=C(CCNS(=O)(=O)c1ccc(Br)s1)NCc1ccccc1Cl, the Potency was inconclusive: 22.4 µM [inhibitor, single point]. Cc1ccc(NC(=O)CNCc2cccs2)cc1Br was tested, and the Potency was inconclusive: 20 µM [inhibitor, single point]. CCOC(=O)N1CCN(c2cc(NCCC(=O)O)c3c4c(onc24)-c2ccccc2C3=O)CC1 was tested, and the activity, negative = inhibition was inconclusive: 53.6% [activator]. For Cc1cccc(N2CCN(C(=O)c3cn4ccccc4n3)CC2C)c1 (stereo not drawn), the Potency was inconclusive: 100 µM [inhibitor, single point]. O=C(O)C1CCCN1S(=O)(=O)c1ccc(Cl)cc1 (stereo not drawn) was tested, and the Potency was inconclusive: 141 µM [inhibitor, single point]. For CCOC(=O)c1nn2c(C(F)(F)F)cc(-c3ccc(OC)cc3)nc2c1Br, the “activity, negative = inhibition” value was inactive: -2.7%. For O=C(O)c1sccc1Oc1ccc(NS(=O)(=O)c2ccc(Cl)cc2)cc1, the Potency was inconclusive: 31.6 µM [inhibitor, partial curve, poor fit]. In the case of CC(=O)Nc1ccc(/C=N/NC(=S)NC(C)C)cc1, the Potency is reported as inconclusive: 25.1 µM [inhibitor, partial curve, poor fit]. For Cc1ccc(CNc2nc3c([nH]2)c(=O)n(C)c(=O)n3C)cc1, the “activity, negative = inhibition” value was inactive: 1.63%. With CC(O)CNCCCOc1cccc(Oc2ccccc2)c1 (stereo not drawn) the Potency was inconclusive: 100 µM [inhibitor, single point]. In the case of Cc1ccc(S(=O)(=O)N2CCN(C(=O)CN3CCN(C)CC3)C2)cc1, the Potency is reported as inconclusive: 141 µM [inhibitor, single point]. With CCc1ccc(NC(=S)NC2CC3CCCC(C2)N3Cc2cccs2)cc1 (stereo not drawn) the Potency was inconclusive: 126 µM [inhibitor, partial curve]. COc1cnn(-c2cccc(C)c2)c(=O)c1Cl was tested, and the Potency was inconclusive: 22.4 µM [inhibitor, single point]. CN(C)C(=O)c1ccc(-n2cccn2)nc1 was tested, and the Potency was inconclusive: 22.4 µM [inhibitor, single point]. With COc1ccc(C(C2C(=O)CC(C)(C)CC2=O)C2C(=O)CC(C)(C)CC2=O)cc1 the Potency was inconclusive: 141 µM [inhibitor, partial curve]. CN1CCN(CC(O)COc2ccc(C(=O)O)cc2)CC1 (stereo not drawn) was tested, and the Potency was inconclusive: 17.8 µM [inhibitor, single point]. With CCOC(=O)CSc1nnc2c3ccccc3n(CC)c2n1 the “activity, negative = inhibition” value was inactive: -6.37%. COc1cc2c(cc1NC(=O)CSc1ccccn1)oc1ccccc12 was tested, and the Potency was inconclusive: 1260 µM [inhibitor, partial curve, poor fit]. In the case of C=C(C)c1cccc(C(C)(C)NC(=O)NC2CCN(Cc3ccccc3)CC2)c1, the Potency is reported as inconclusive: 25.1 µM [inhibitor, single point]. For CCOc1cc(/C=C2\SC(=S)N(Nc3ccccc3)C2=O)ccc1O, the Potency was inconclusive: 200 µM [activator, partial curve]. O=C(Cc1ccccc1)NNc1ccc2ccccc2c1 was tested, and the “activity, negative = inhibition” value was inactive: -9.83%. With CN(CC(=O)Nc1ccccc1Br)CC(=O)Nc1ccccc1C(F)(F)F the Potency was inconclusive: 89.1 µM [inhibitor, partial curve]. In the case of O=C(c1ccc(Cl)c(S(=O)(=O)N2CCOCC2)c1)N1CCOCC1, the “activity, negative = inhibition” value is reported as inactive: 5.43%. With COc1ccc(S(=O)(=O)Nc2cccc(-c3ccc4nncn4n3)c2)c(OC)c1 the activity, negative = inhibition was inconclusive: 50.6% [activator]. For O=C1CN(CC(=O)N2CCOCC2)c2ccccc2O1, the “activity, negative = inhibition” value was inactive: -1.44%. With CCOC(=O)CC1C(=O)NCCN1c1nc2ccc(C)cn2c(=O)c1/C=C1\SC(=S)N(CC(C)C)C1=O (stereo not drawn) the “activity, negative = inhibition” value was inactive: 18.9%. In the case of Cc1ccccc1NC(=O)NCC1CCN(C(=O)OC(C)(C)C)CC1, the Potency is reported as inconclusive: 100 µM [inhibitor, single point]. In the case of CCCCN(C(=O)CCC(=O)Nc1cc(C)on1)C(C(=O)NC1CCCC1)c1ccc(OCC)cc1 (stereo not drawn), the “activity, negative = inhibition” value is reported as inactive: -4.17%. For O=C(Cn1ncc2c([nH]c3ccccc32)c1=O)N1CCCCC1, the Potency was inconclusive: 398 µM [inhibitor, partial curve]. Cc1nc2ccccc2n1Cc1ccccc1 was tested, and the “activity, negative = inhibition” value was inactive: -2.97%. CCOC(=O)c1cc(C)sc1NC(=O)CN1CCN(C(=O)c2ccco2)CC1 was tested, and the “activity, negative = inhibition” value was inactive: -13%. For O=c1c2[nH]c3ccccc3c2ncn1CCN1CCCCC1, the “activity, negative = inhibition” value was inactive: -1.87%. In the case of NS(=O)(=O)c1ccc(CNC(=O)c2csc3c2CCCC3)cc1, the Potency is reported as inconclusive: 89.1 µM [inhibitor, single point]. For Cc1oc2cc3oc(=O)c(CCC(=O)NCCCC(=O)O)c(C)c3cc2c1C, the Potency was inconclusive: 141 µM [inhibitor, partial curve, poor fit]. For O=C(Nc1cccc(C(F)(F)F)c1)N(Cc1ccc(Cl)cc1)CC(O)C(F)(F)F (stereo not drawn), the Potency was inconclusive: 17.8 µM [inhibitor, single point]. With Cc1cccc(N(CC(=O)NCCSCc2ccco2)S(=O)(=O)c2ccccc2)c1 the “activity, negative = inhibition” value was inactive: -3.82%. In the case of CN(Cc1ccccc1)C(=O)CN1C(=O)c2ccccc2S1(=O)=O, the Potency is reported as inconclusive: 20 µM [inhibitor, single point]. For COc1ccc(C)cc1NC(=O)CCN1CCN(C/C=C/c2ccccc2)CC1, the Potency was inconclusive: 158 µM [inhibitor, partial curve, poor fit]. For CS(=O)(=O)c1ccc(C(=O)OC2CCOC2=O)cc1[N+](=O)[O-] (stereo not drawn), the Potency was inconclusive: 10 µM [inhibitor, single point]. Nc1ccc(-c2c3ccc(=O)cc-3oc3cc(O)ccc23)cc1C(=O)O was tested, and the Potency was inconclusive: 31.6 µM [activator, partial curve]. For O=[N+]([O-])c1ccc(/C=N/NC(=S)Nc2ccccc2F)o1, the “activity, negative = inhibition” value was inactive: 1.35%. With CCCOc1ccc(CSc2n[nH]c(C)n2)cc1 the Potency was inconclusive: 100 µM [inhibitor, single point]. In the case of COc1ccc(-n2nc3c(c2NC(=O)CCl)CSC3)cc1, the “activity, negative = inhibition” value is reported as inactive: 4.85%. For COc1cc(/C=C2/SC(=S)N(Cc3ccccc3)C2=O)cc(Cl)c1O, the Potency was inconclusive: 12.6 µM [activator, partial curve]. In the case of Clc1ccc(N2CCN(Cc3ccco3)CC2)cc1, the Potency is reported as inconclusive: 1260 µM [inhibitor, partial curve]. In the case of O=C(NC1=NCCS1)c1cc(-c2cccnc2)nc2ccccc12, the Potency is reported as inconclusive: 100 µM [inhibitor, single point]. With CCOC(=O)c1ccccc1NC(=O)c1cccnc1 the “activity, negative = inhibition” value was inactive: 0.0467%. CCCCCN1C=CC=C/C1=C\C=C(C#N)C#N was tested, and the Potency was inconclusive: 126 µM [activator, partial curve]. In the case of CN(C(=O)c1ccc(C#N)cc1)c1nnc(-c2cnccn2)s1, the Potency is reported as inconclusive: 112 µM [inhibitor, single point]. With COc1cccc(C(c2ccccc2)N2C3CCC2CN(S(=O)(=O)c2ccc(F)cc2)CC3)c1 (stereo not drawn) the “activity, negative = inhibition” value was inactive: -6.84%. With O=C(Nc1ccc(C2=NCCN2)cc1)c1ccc(C(=O)Nc2ccc(C3=NCCN3)cc2)c([N+](=O)[O-])c1 the Potency was inconclusive: 100 µM [activator, partial curve]. In the case of CC1CN(c2nc3ccccc3nc2C(C#N)C(=O)NC2CCCCC2)CC(C)O1 (stereo not drawn), the activity, negative = inhibition is reported as inconclusive: 64.4% [activator]. For COc1ccc(C(=O)N/N=C/c2cc(Br)ccc2O)cc1OC, the Potency was inconclusive: 100 µM [inhibitor, single point]. O=C(O)c1ccc(Nc2ccc([N+](=O)[O-])c3nonc23)cc1 was tested, and the “activity, negative = inhibition” value was inactive: -22.8%. In the case of Cc1cc(C)c2nc(C)cc(Nc3ccc(C(=O)NCCO)cc3)c2c1, the activity, negative = inhibition is reported as inconclusive: -30.9% [inhibitor]. CCCCOCCCNCc1cccn1CCN1CCOCC1 was tested, and the Potency was inconclusive: 112 µM [inhibitor, single point]. With COc1ccccc1N1CCN(C(=O)c2coc(=O)c(Br)c2)CC1 the Potency was inconclusive: 100 µM [inhibitor, single point]. CC(C)OCCCn1c(NN)nc2ccccc2c1=O was tested, and the Potency was inconclusive: 316 µM [inhibitor, partial curve]. In the case of O=C(Nc1ccc(N2CCN(C(=O)c3cccs3)CC2)cc1)c1ccco1, the Potency is reported as inconclusive: 17.8 µM [inhibitor, single point]. In the case of Cn1nccc1C(=O)NC(=S)Nc1cc(Cl)cc(Cl)c1, the “activity, negative = inhibition” value is reported as inactive: -16%. Clc1ccc(-n2cnnn2)cc1 was tested, and the “activity, negative = inhibition” value was inactive: 13.7%. For N#Cc1c(NC(=O)c2ccccc2Cl)n(Cc2ccccc2)c2nc3ccccc3nc12, the “activity, negative = inhibition” value was inactive: 3.34%. CCOC(=O)/C(C#N)=C/c1c(N2CCN(c3ccc(OC)cc3)CC2)nc2c(C)cccn2c1=O was tested, and the Potency was inconclusive: 79.4 µM [inhibitor, partial curve]. For COC(=O)C(C)Sc1nc2c(cnn2-c2ccc(F)cc2)c(=O)[nH]1 (stereo not drawn), the Potency was inconclusive: 100 µM [inhibitor, partial curve, poor fit]. In the case of COc1ccc(OC)c(/C=N/NC(=O)c2csc3ccccc23)c1, the Potency is reported as inconclusive: 158 µM [inhibitor, partial curve]. For Cc1ccc2cc(C#N)c(N3CCCN(C(=O)C4CCCO4)CC3)nc2c1 (stereo not drawn), the “activity, negative = inhibition” value was inactive: -4.55%. With CN(C(=S)NC(=O)c1ccc(Cl)cc1)C1CCCCC1 the “activity, negative = inhibition” value was inactive: 1.55%. For COc1ccc(N(CC(=O)NCCSc2ccccn2)S(C)(=O)=O)cc1, the Potency was inconclusive: 15.8 µM [inhibitor, single point]. For CC(C)Cc1nc2ccccc2[nH]1, the Potency was inconclusive: 20 µM [inhibitor, single point]. Cc1nc(C2COc3ccccc3O2)sc1C(=O)O (stereo not drawn) was tested, and the Potency was inconclusive: 100 µM [inhibitor, single point]. With Cc1ccc(NC(=S)Nc2cccc3cnccc23)c(C)c1 the “activity, negative = inhibition” value was inactive: 20.3%. In the case of CC(C)CCNC(=O)CCc1nnc2ccc(N3CCC(C)CC3)nn12, the Potency is reported as inconclusive: 158 µM [inhibitor, single point].

— PubChem BioAssay AID488837 (National Center for Advancing Translational Sciences (NCATS), 2010)
On the % scale 0 is the no-effect control and ±100 the full control effect; potency means the concentration at half of the fitted maximal effect.
